No constants are given. Whether binding was seen depends on the method and setting. Binding seen in cells or lysates may run through a third protein. Tags and fused reporters may be left off the sequences shown.
Molecular target: GST-tagged ISG15 (UniProt P05161)
Assay: pull-down; GST-tagged UBL (ISG15, SUMO1 or ubiquitin) on magnetic glutathione beads mixed with a lysate of transfected HEK293T cells, overnight 4 °C, three washes in 50 mM Tris.HCl pH 8.0, 150 mM NaCl, 1% triton-x-100; immunoblot against FLAG and GST; only the target purified

The chains behind the UniProt entries cited, without tags or fusion partners. Residues count along the entry.
UniProt P05161, residues 1-157: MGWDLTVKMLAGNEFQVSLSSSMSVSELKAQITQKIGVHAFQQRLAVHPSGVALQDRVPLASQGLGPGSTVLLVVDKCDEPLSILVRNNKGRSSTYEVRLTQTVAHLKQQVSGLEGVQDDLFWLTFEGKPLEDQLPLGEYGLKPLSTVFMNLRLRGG

binding: no binding
B1: complementary C-terminal fragment of RNF213 (FLAG-C-domain-RNF213) (domain or fragment, UniProt Q63HN8 3998-5207)
chain: SICLGDAKDPVCLPCDHVHCLRCLRAWFASEQMICPYCLTALPDEFSPAVSQAHREAIEKHARFRQMCNSFFVDLVSTICFKDNAPPEKEVIESLLSLLFVQKGRLRDAAQRHCEHTKSLSPFNDVVDKTPVIRSVILKLLLKYSFHDVKDYIQEYLTLLKKKAFITEDKTELYMLFINCLEDSILEKTSAYSRNDELNHLEEEGRFLKAYSPASRGREPANEASVEYLQEVARIRLCLDRAADFLSEPEGGPEMAKEKQCYLQQVKQFCIRVENDWHRVYLVRKLSSQRGMEFVQGLSKPGRPHQWVFPKDVVKQQGLRQDHPGQMDRYLVYGDEYKALRDAVAKAVLECKPLGIKTALKACKTPQSQQSAYFLLTLFREVAILYRSHNASLHPTPEQCEAVSKFIGECKILSPPDISRFATSLVDNSVPLLRAGPSDSNLDGTVTEMAIHAAAVLLCGQNELLEPLKNLAFSPATMAHAFLPTMPEDLLAQARRWKGLERVHWYTCPNGHPCSVGECGRPMEQSICIDCHAPIGGIDHKPRDGFHLVKDKADRTQTGHVLGNPQRRDVVTCDRGLPPVVFLLIRLLTHLALLLGASQSSQALINIIKPPVRDPKGFLQQHILKDLEQLAKMLGHSADETIGVVHLVLRRLLQEQHQLSSRRLLNFDTELSTKEMRNNWEKEIAAVISPELEHLDKTLPTMNNLISQDKRISSNPVAKIIYGDPVTFLPHLPRKSVVHCSKIWSCRKRITVEYLQHIVEQKNGKERVPILWHFLQKEAELRLVKFLPEILALQRDLVKQFQNVQQVEYSSIRGFLSKHSSDGLRQLLHNRITVFLSTWNKLRRSLETNGEINLPKDYCSTDLDLDTEFEILLPRRRGLGLCATALVSYLIRLHNEIVYAVEKLSKENNSYSVDAAEVTELHVISYEVERDLTPLILSNCQYQVEEGRETVQEFDLEKIQRQIVSRFLQGKPRLSLKGIPTLVYRHDWNYEHLFMDIKNKMAQDSLPSSVISAISGQLQSYSDACEVLSVVEVTLGFLSTAGGDPNMQLNVYTQDILQMGDQTIHVLKALNRCQLKHTIALWQFLSAHKSEQLLRLHKEPFGEISSRYKADLSPENAKLLSTFLNQTGLDAFLLELHEMIILKLKNPQTQTEERFRPQWSLRDTLVSYMQTKESEILPEMASQFPEEILLASCVSVWKTAAVLKWNREMR

— PMC8486878
